According to PubChem BioAssay AID651768 (National Center for Advancing Translational Sciences (NCATS), 2012):
The campaign covered roughly 360,000 compounds. About 1,700 (0.47%) were called active. Inconclusive means that the source gave no clear call. Such entries were picked first, then a sample of the others. Calls come from the whole dose curve; as a rule, active = well fitted inhibition curve with a large enough effect; inconclusive = small, poorly fitted or top-dose-only effect; inactive = no such curve, though single readings can be large or run the other way. Potencies beside an inconclusive call are fits to weak or partial responses and may not hold up.

By UniProt entry, the sequences of proteins in these tests, tags left out.
UniProt Q14191, whole entry, looked up: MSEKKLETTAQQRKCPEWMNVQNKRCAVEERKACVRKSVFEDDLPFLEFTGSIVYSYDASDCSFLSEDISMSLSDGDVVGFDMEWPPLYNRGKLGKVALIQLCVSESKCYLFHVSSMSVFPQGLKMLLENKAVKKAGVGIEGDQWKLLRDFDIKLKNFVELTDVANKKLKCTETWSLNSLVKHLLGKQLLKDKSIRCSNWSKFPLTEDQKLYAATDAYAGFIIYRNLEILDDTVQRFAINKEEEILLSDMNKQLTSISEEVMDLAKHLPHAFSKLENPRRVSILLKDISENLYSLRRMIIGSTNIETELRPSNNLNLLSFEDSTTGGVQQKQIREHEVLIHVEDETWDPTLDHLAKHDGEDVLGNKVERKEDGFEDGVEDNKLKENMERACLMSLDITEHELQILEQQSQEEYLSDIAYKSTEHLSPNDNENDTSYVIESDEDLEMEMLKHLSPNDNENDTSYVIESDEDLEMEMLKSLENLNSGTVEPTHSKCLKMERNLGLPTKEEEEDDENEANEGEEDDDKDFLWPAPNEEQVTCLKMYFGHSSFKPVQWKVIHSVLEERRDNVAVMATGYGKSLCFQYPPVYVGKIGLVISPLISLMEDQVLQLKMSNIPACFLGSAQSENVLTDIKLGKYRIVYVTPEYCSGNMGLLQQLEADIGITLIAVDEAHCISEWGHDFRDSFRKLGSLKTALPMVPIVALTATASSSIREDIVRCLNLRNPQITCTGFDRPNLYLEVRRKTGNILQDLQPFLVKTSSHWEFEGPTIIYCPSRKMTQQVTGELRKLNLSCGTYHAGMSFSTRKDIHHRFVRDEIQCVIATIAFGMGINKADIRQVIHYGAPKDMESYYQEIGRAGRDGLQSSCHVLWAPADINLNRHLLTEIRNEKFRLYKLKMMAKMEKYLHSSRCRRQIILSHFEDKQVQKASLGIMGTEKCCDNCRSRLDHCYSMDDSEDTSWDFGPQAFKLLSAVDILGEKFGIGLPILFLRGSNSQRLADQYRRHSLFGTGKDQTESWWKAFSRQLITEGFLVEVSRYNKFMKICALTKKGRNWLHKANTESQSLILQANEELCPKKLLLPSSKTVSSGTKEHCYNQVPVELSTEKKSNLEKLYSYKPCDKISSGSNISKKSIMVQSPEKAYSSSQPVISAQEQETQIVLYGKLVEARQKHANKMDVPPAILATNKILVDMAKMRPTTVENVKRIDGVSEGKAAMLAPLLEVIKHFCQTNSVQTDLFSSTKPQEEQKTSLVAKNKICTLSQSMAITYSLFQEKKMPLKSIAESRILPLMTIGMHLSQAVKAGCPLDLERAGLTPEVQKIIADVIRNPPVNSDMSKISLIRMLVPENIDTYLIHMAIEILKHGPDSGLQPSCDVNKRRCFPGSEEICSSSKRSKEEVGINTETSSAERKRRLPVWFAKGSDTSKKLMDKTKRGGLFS

Molecular target: Bifunctional 3'-5' exonuclease/ATP-dependent helicase WRN (Homo sapiens) (UniProt Q14191)
Assay: qHTS for Inhibitors of WRN Helicase; note: nearly all actives have a fitted effect of over 55% in size
Settings: WRN helicase unwinding, fluorescent forked duplex, kinetic; activity change, negative = inhibition: at 114 µM (top of the series) unless noted
In short: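 Fluorescence dequenching readout, ex 525 nm/em 598 nm, kinetic mode: forked duplex DNA (100 nM final) with adjacent fluorophore and quencher unwound by WRN (20 nM final) with 2 mM ATP. Compound preincubation 15 min, room temperature.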
% is set by controls: 0 for no effect and ±100 for the full control effect; potency is the fitted concentration of half-maximal effect.

SMILES	Potency	activity change, negative = inhibition
COc1ccc(C2=NN(c3nc(-c4ccccc4)c(CC(=O)O)s3)C(c3ccco3)C2)cc1 (stereo not drawn)	inconclusive: 56.2 µM [inhibitor, partial curve, poor fit]	
COC(=O)C1=C(C(=O)OC)SC2(S1)C(C(=O)OC)=C(C(=O)OC)SC1=C2c2cc(C)ccc2NC1(C)C	inconclusive: 50.1 µM [inhibitor, partial curve]	
COc1ccccc1OCC(=O)Sc1ccc(C)cc1	inconclusive: 39.8 µM [inhibitor, partial curve]	
O=C(CCCCl)NC1=NN(c2ccccc2)C(=O)C1	inconclusive: 20 µM [inhibitor, single point]	
O=C(CN(Cc1ccccc1)C(=O)CCC(=O)Nc1nccs1)NCc1ccc(F)cc1	inconclusive: 89.1 µM [inhibitor, single point]	
CC1(C(=O)NCCC(F)(F)F)Cc2c(-c3cccc(C(N)=O)c3)ccnc2O1 (stereo not drawn)		inactive: 2.58%
COc1cc(/C=C2\C(=O)NN(c3ccccc3)C2=O)cc([N+](=O)[O-])c1O	inconclusive: 39.8 µM [inhibitor, partial curve]	
CC(=O)c1cccc(OCc2cc(C(=O)NC3CCN(Cc4ccccc4)CC3)no2)c1		inactive: 2.83%
Cc1ccc(NC(=O)CN(C)C(=O)Cn2c(=O)oc3ccccc32)cc1	inconclusive: 28.2 µM [inhibitor, full curve, poor fit]	
Cc1ccc(C)c(C2C(C#N)=C(N)Oc3cc(C)oc(=O)c32)c1 (stereo not drawn)	inconclusive: 50.1 µM [inhibitor, partial curve]	
CCn1c(CSc2nc3ccccc3s2)nnc1SCC(=O)c1ccc(O)c(O)c1	inconclusive: 3.36 µM [inhibitor, partial curve]	
COc1ccc(NC(=O)CS(=O)c2cccc(C(F)(F)F)c2)cc1 (stereo not drawn)		inactive: -1.31%
Cn1c(=O)c2c(nc(NC(Cc3ccccc3)C(=O)O)n2Cc2ccccc2)n(C)c1=O (stereo not drawn)	inconclusive: 79.4 µM [inhibitor, single point]	
CC(C)(C)OC(=O)C[C@H]1C/C=C\C[C@H](CC(=O)N[C@H](CO)Cc2ccccc2)C(=O)N[C@H](C(C)(C)C)COC1=O		inactive: 4.35%
CCOP(=O)(OCC)C(NC(=O)Nc1ccc(Cl)c(Cl)c1)C(N)=O (stereo not drawn)	inconclusive: 25.1 µM [inhibitor, single point]	
CCN1CCN(c2nc(Nc3ccc(NC(C)=O)cc3)nc(Nc3ccc(NC(C)=O)cc3)n2)CC1	active: 25.1 µM	
Cc1cc(=O)[nH]c(N/N=C/c2c(O)n(-c3ccccc3)c(=O)c3ccccc23)n1	inconclusive: 15 µM [inhibitor, partial curve]	
COc1cc(/C=N/Nc2cc(C)nc(NS(=O)(=O)c3ccccc3)n2)ccc1O	inconclusive: 89.1 µM [inhibitor, single point]	
CCOc1cc(/C=N/Nc2ccc(S(=O)(=O)Nc3ccccc3C(=O)O)cc2[N+](=O)[O-])cc(Cl)c1O	inconclusive: 50.1 µM [inhibitor, partial curve]	
CCCc1ccc(OCc2nc(-c3ccc(NC(=O)c4cccs4)cc3)no2)cc1		inactive: -10.3%
COc1ccc(S(=O)(=O)Nc2cc(SCC(=O)O)c(O)c3ccccc23)cc1	active: 79.4 µM	
O=C(NC1CCCCC1)C(c1cccnc1)N(CCc1ccccc1)C(=O)Cc1cccs1 (stereo not drawn)		inactive: -16.2%
Cc1cc(NC(=O)c2ccc([N+](=O)[O-])o2)ccc1NC(=O)c1ccco1		inactive: -9.43%

Two entries from above, reformatted:
SMILES,Potency,"activity change, negative = inhibition"
COc1ccccc1OCC(=O)Sc1ccc(C)cc1,"inconclusive: 39.8 µM [inhibitor, partial curve]",
O=C(CCCCl)NC1=NN(c2ccccc2)C(=O)C1,"inconclusive: 20 µM [inhibitor, single point]",

Continuation:

SMILES	Potency	activity change, negative = inhibition
Clc1cccc2sc(-c3nnc(-c4ccccc4)o3)c(Cl)c12	inconclusive: 100 µM [inhibitor, single point]	
Cc1c(C(=O)N2CCCCC2)c(S(=O)(=O)NCCc2ccc(Cl)cc2)c(C)n1C		inactive: -0.318%
NC(=O)C1C2CCC(C2)C1C(N)=O (stereo not drawn)	inconclusive: 17.8 µM [inhibitor, single point]	
CCOC(=O)C1=C(C)N(C)C(=O)NC1c1cccc2ccccc12 (stereo not drawn)		inactive: -30.3%
Cc1ccc(/C=N/n2c(C3CCCCC3)n[nH]c2=S)o1	inconclusive: 10 µM [inhibitor, partial curve]	
CC(=O)N(\C=C/C=C/C=C1\Sc2ccccc2C1=O)c1ccccc1	inconclusive: 28.2 µM [inhibitor, single point]	
O=C(NC1(O)C(=O)c2ccccc2C1=O)c1ccccc1		inactive: -18.6%
O=C(O)Cc1c[nH]c2cccc(O)c12	inconclusive: 50.1 µM [inhibitor, partial curve]	
Cc1ccc(N(CC(=O)NC(C)(C)C)C(=O)CCC(=O)Nc2ccccn2)cc1		inactive: 4.33%
Cc1ccc(OCC(=O)OCC(=O)Nc2sccc2C(N)=O)cc1C	inconclusive: 28.2 µM [inhibitor, single point]	
CCOc1ccc(-c2cn(-c3cccc(SC)c3)c(=O)[nH]2)cc1	inconclusive: 17.8 µM [inhibitor, single point]	
CC1=Nc2ccccc2/C1=C\c1nc(-c2ccc(C(F)(F)F)cc2)oc1O	inconclusive: 3.55 µM [inhibitor, full curve]	
NC(=O)c1ccc2c(=O)c(O)c(-c3cc(Cl)c(N)c(Cl)c3)[nH]c2c1	inconclusive: 44.7 µM [inhibitor, full curve, poor fit]	
Clc1cccc(OCCOCCN2CCNCC2)c1Cl	inconclusive: 3.55 µM [inhibitor, full curve, poor fit]	
COc1cc(-c2cc(=O)c3c(O)c(OC)c(OC)cc3o2)cc(OC)c1O	inconclusive: 63.1 µM [inhibitor, partial curve]	
COc1cccc(OCc2cc(C3Nc4ccccc4C(=O)N3Cc3ccco3)ccc2OC)c1 (stereo not drawn)		inactive: -23.7%
CC1=C(C(=O)OCc2ccccc2)C(c2ccc(Br)cc2)NC(=O)N1CCCC(=O)O (stereo not drawn)		inactive: -0.262%
Oc1ccc(C2=Nn3c(nnc3-c3ccco3)SC2)cc1O	active: 11.2 µM	
CC(=O)c1sc2nsc(SCCN3CCCC3)c2c1N	inconclusive: 50.1 µM [inhibitor, partial curve]	
O=C(O)c1ccc(Cl)c(S(=O)(=O)Nc2ccccc2C(=O)Nc2ccc(Cl)cc2)c1	inconclusive: 56.2 µM [inhibitor, partial curve]	
N#CCC(=O)Nc1ccc(C(=O)OCC(=O)NC(=O)NCc2ccco2)cc1		inactive: -35.8%
CCOc1cc(/C=N/NC(=O)N/N=C/c2ccc(O)c(OCC)c2)ccc1O	inconclusive: 25.1 µM [inhibitor, partial curve]	
CC1CC(=O)c2c(cc3c(-c4c(O)cc(O)c5c(O)c6c(cc45)OC(C)CC6=O)c(O)cc(O)c3c2O)O1 (stereo not drawn)	inconclusive: 89.1 µM [inhibitor, partial curve]	

Filtered by structure, those above containing a CF3 group.
SMILES	Potency	activity change, negative = inhibition
CC1(C(=O)NCCC(F)(F)F)Cc2c(-c3cccc(C(N)=O)c3)ccnc2O1 (stereo not drawn)		inactive: 2.58%
COc1ccc(NC(=O)CS(=O)c2cccc(C(F)(F)F)c2)cc1 (stereo not drawn)		inactive: -1.31%
CC1=Nc2ccccc2/C1=C\c1nc(-c2ccc(C(F)(F)F)cc2)oc1O	inconclusive: 3.55 µM [inhibitor, full curve]	

Remaining list, next part.

SMILES	Potency	activity change, negative = inhibition
CC(=O)Nc1ccc(NC(=O)CSc2nc(N)c(NC(=O)c3ccccc3F)c(=O)[nH]2)cc1	inconclusive: 35.5 µM [inhibitor, partial curve]	
Cc1nc(SCC(=O)NCc2ccco2)[nH]c(=O)c1C		inactive: -17% [at 57.1 µM]
CC1=CC(=C(C#N)C#N)C=C(C)N1CCN1CCN(C(=O)Nc2ccc(Cl)c(Cl)c2)CC1	inconclusive: 11.2 µM [inhibitor, full curve]	
O=C(c1ccc2nc(-c3ccco3)c(-c3ccco3)nc2c1)N1CCN(c2ncccn2)CC1	active: 44.7 µM	
CCN(CC)c1ccc(C=C2C(=O)OC3(CCCCC3)OC2=O)cc1	active: 50.1 µM	
COc1ccc(S(=O)(=O)N2CCN(C(=O)C3CC3)CC2)cc1Br		inactive: 3.85%
O=C(c1ccco1)N(CCC(c1ccccc1)c1ccco1)Cc1ccccc1 (stereo not drawn)	inconclusive: 79.4 µM [inhibitor, partial curve]	
O=C(NCc1cccnc1)c1cccc(OC2CCN(Cc3ccc(CO)o3)CC2)c1	inconclusive: 79.4 µM [inhibitor, single point]	
O=C1C2C3C=CC(CO)(O3)C2C(=O)N1c1ccccc1-c1ccccc1 (stereo not drawn)	inconclusive: 11.2 µM [inhibitor, partial curve]	
COC(=O)COc1ccc(S(=O)(=O)NCc2ccc3c(c2)OCO3)cc1		inactive: -7.23%
CC(C)OC(=O)C(C(=O)C(F)(F)F)c1cc(NS(=O)(=O)c2ccc3ccccc3c2)c2ccccc2c1O (stereo not drawn)	inconclusive: 20 µM [inhibitor, partial curve]	
CC(C)=CC(=O)OCC(=O)Nc1ncc(Cl)c(C)c1Cl	inconclusive: 50.1 µM [inhibitor, partial curve]	
Cc1onc(-c2c(Cl)cccc2Cl)c1C(=O)N=C(N)N1CCOCC1		inactive: -0.49%
O=c1cc(-c2ccc(O)c(O)c2)oc2c1ccc1ccccc12	inconclusive: 8.91 µM [inhibitor, full curve]	
CCN(CC)c1ccc(/C=N/NC(=O)c2cccc(S(=O)(=O)N3CCOCC3)c2)cc1	inconclusive: 15.8 µM [inhibitor, partial curve]	
O=C1CCCN2N=C(SCC(=O)Nc3nccs3)SC2=N1	inconclusive: 79.4 µM [inhibitor, partial curve]	
COc1ccc2ccccc2c1/C=N/N1C(=O)CSC1=S	inconclusive: 89.1 µM [inhibitor, single point]	
CSc1ccccc1NC(=O)COc1ccc(Cl)cc1Cl	inconclusive: 31.6 µM [inhibitor, single point]	
CC(=O)NC1C(c2nc3ccccc3s2)=C(c2ccccc2)C(=O)N1c1ccc(C)cc1 (stereo not drawn)		inactive: -7.45%
O=c1cc(-c2ccccc2)oc2cc(O)c(O)c(O)c12	inconclusive: 5.32 µM [inhibitor, partial curve]	
Cc1ccc(-n2nc3c(=O)n(CC(=O)NCc4cccs4)nc(C)c3c2C)cc1		inactive: -1.16%
O=C(CN1C(=O)/C(=C/c2ccco2)SC1=S)Nc1ccc(C(=O)O)c(O)c1	active: 35.5 µM	
